{"sequences": {"note": "Amino acid sequences for entries named in this document (tags omitted). A change or cut given only in a name is not applied to a line headed by its entry.", "UniProt P18054": "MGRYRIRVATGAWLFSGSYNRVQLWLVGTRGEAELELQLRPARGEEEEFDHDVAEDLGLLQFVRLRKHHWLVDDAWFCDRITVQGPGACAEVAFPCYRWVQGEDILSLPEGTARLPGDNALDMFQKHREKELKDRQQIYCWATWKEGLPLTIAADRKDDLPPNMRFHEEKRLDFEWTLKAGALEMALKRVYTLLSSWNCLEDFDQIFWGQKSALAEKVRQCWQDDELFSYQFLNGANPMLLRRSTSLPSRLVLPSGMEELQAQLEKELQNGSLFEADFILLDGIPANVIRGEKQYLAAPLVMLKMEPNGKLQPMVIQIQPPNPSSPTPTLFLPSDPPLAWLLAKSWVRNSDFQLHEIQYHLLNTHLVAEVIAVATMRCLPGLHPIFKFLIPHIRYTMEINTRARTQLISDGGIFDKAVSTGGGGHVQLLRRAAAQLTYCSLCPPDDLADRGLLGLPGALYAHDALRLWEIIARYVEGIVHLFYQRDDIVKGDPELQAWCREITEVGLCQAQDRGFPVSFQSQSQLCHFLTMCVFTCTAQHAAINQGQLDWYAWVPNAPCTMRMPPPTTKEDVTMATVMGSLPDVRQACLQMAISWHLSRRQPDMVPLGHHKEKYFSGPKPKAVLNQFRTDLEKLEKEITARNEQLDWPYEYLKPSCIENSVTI"}, "source": "PubChem BioAssay AID1671190", "about": "(National Center for Advancing Translational Sciences (NCATS), 2021)", "note": "The campaign covered roughly 580,000 compounds. About 6,100 (1.1%) were called active. The inconclusive results got no clear call from the source; some entries with a clear call stand among them for comparison. Calls come from the whole dose curve; as a rule, active = well fitted inhibition curve with a large enough effect; inconclusive = small, poorly fitted or top-dose-only effect, or another doubt; inactive = no such curve, though single readings can be large or run the other way. Where the call is inconclusive, the potency comes from a doubtful curve fit. % is set by controls: 0 for no effect and ±100 for the full control effect; potency is the fitted concentration of half-maximal effect.", "data": [{"target": "Polyunsaturated fatty acid lipoxygenase ALOX12 (Homo sapiens) (UniProt P18054)", "experiment": "Primary qHTS assay for inhibitors of human arachidonate 12S-lipoxygenase (ALOX12): Round 2", "settings": "purified 12hLO, xylenol orange hydroperoxide absorbance; activity change, negative = inhibition: at 108 µM (top of the series) unless noted", "procedure,_shortened": "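Purified human 12hLO at 150 nM in 25 mM Hepes, 0.01% Triton X-100, pH 7.0, preincubated 15 min at room temperature with compound. Reaction started with 40 uM arachidonic acid, 30 min at room temperature. Hydroperoxide measured by Fe-xylenol orange, 573/405 nm absorbance ratio.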", "values": [{"smiles": "CS(=O)(=O)N1CCC(C2CCN(Cc3cccs3)C2)CC1", "note": "(stereo unspecified)", "activity change, negative = inhibition": "inactive: 84.7%"}, {"smiles": "Cn1cccc1CC(=O)NNC(=S)Nc1ccc(Cl)cc1", "Potency": "inconclusive: 70.8 µM [inhibitor, partial curve, poor fit]"}, {"smiles": "CCCCn1c(-c2ccco2)n[nH]c1=S", "Potency": "inconclusive: 50.1 µM [inhibitor, partial curve, poor fit]"}, {"smiles": "Cc1nc(NCc2ccc(S(=O)(=O)N(C)C)cc2)cc(C2CC(O)C2)n1", "note": "(stereo unspecified)", "activity change, negative = inhibition": "inactive: 41.9%"}, {"smiles": "CSc1nc(=NC(C)=O)ss1", "Potency": "inconclusive: 15.8 µM [inhibitor, partial curve, poor fit]"}, {"smiles": "O=C(c1ccccc1)N1CCC2(CC1)NC(=O)N(Cc1ccccc1)C2=O", "activity change, negative = inhibition": "inactive: 12.3%"}, {"smiles": "CSc1ccc(CN2CCC2(C)C(=O)Nc2cccc(Oc3ccccc3)c2)cc1", "note": "(stereo unspecified)", "activity change, negative = inhibition": "inactive: 6.27%"}, {"smiles": "CCOC(=O)C1CCN(C(=O)c2ccc3snnc3c2)CC1", "Potency": "inconclusive: 126 µM [inhibitor, single point]"}, {"smiles": "O=C(NNC(=S)Nc1cccc2ccccc12)c1cccc(Br)c1", "Potency": "inconclusive: 35.5 µM [inhibitor, partial curve, poor fit]"}, {"smiles": "COc1ccc(N2CCN(C(=O)c3cc(S(=O)(=O)N4CCC(C)CC4)cn3C)CC2)cc1", "Potency": "inconclusive: 63.1 µM [inhibitor, partial curve, poor fit]"}, {"smiles": "COc1cccc(/C=N/n2nnnc2N)c1OCC#N", "activity change, negative = inhibition": "inactive: 0%"}, {"smiles": "CCCOC(=O)c1ccc(Nc2nc3ccccc3nc2NS(=O)(=O)c2ccc(OC)cc2)cc1", "Potency": "inconclusive: 50.1 µM [inhibitor, partial curve, poor fit]"}, {"smiles": "CCNC(=O)N1CC(Oc2cccc(-c3nc(-c4ccccc4)no3)c2)C1", "Potency": "inconclusive: 70.8 µM [inhibitor, partial curve]"}, {"smiles": "CC(C)CC(=O)Nc1ccc(NC(=O)c2ccccc2F)cc1", "activity change, negative = inhibition": "inactive: -11.5%"}, {"smiles": "Cc1cnc(CC2CCCN(C(=O)CCc3c[nH]c4ccccc34)C2)n1C(C)C", "note": "(stereo unspecified)", "activity change, negative = inhibition": "inactive: 9.3%"}, {"smiles": "COc1ccc(C2CC(=O)N(c3sc4c(c3C#N)CCCC4)C3=C2C(=O)CCC3)cc1", "note": "(stereo unspecified)", "Potency": "inconclusive: 79.4 µM [inhibitor, partial curve, poor fit]"}, {"smiles": "Cc1ccc(-n2nc3c(N4CCCC(C(=O)NCCN(C)C)C4)nnc(C)c3c2C)cc1", "note": "(stereo unspecified)", "activity change, negative = inhibition": "inactive: -23.9%"}, {"smiles": "COc1ccc(N2CCN(C(=O)CSc3nc4cc(OC)c(OC)cc4cc3C#N)CC2)cc1", "Potency": "inconclusive: 4.47 µM [inhibitor, full curve, poor fit]"}, {"smiles": "O=C(N/N=C/c1c(O)ccc2ccccc12)c1ccc(Br)o1", "Potency": "inconclusive: 44.7 µM [inhibitor, partial curve, poor fit]"}, {"smiles": "COCCN1CCC(N2CCN(C(=O)CC3CCCC3)CC2)C1=O", "note": "(stereo unspecified)", "Potency": "inconclusive: 5.01 µM [inhibitor, full curve]"}, {"smiles": "CC1CC(C)CN(C(=O)CSc2nnc3ccccn23)C1", "note": "(stereo unspecified)", "Potency": "inconclusive: 126 µM [inhibitor, single point]"}, {"smiles": "O=C(NC1CCCCC1)c1ccc2c(c1)N(Cc1ccc(Cl)cc1)C(=O)c1ccccc1S2=O", "note": "(stereo unspecified)", "Potency": "inconclusive: 11.2 µM [inhibitor, full curve, poor fit]"}, {"smiles": "CN(C)C(CNS(=O)(=O)c1ccccc1)c1ccsc1", "note": "(stereo unspecified)", "activity change, negative = inhibition": "inactive: -1.66%"}, {"smiles": "O=C(c1ccc(F)cc1)n1nc(-c2ccccc2)nc1NCc1ccco1", "Potency": "inconclusive: 35.5 µM [inhibitor, single point]"}, {"smiles": "Cc1cccc(Cn2c(=O)c3c(nc4n3CCN4Cc3ccco3)n(C)c2=O)c1", "Potency": "inconclusive: 126 µM [inhibitor, partial curve, poor fit]"}, {"smiles": "CCn1cc(C(=O)NCCc2ccc(Cl)cc2)c(=O)c2cc(S(=O)(=O)N3CCC(C)CC3)ccc21", "Potency": "inconclusive: 14.1 µM [inhibitor, partial curve, poor fit]"}, {"smiles": "CC1(C)Cc2ccccc2/C(=C/C(=O)N2CCCCCC2)N1", "Potency": "inconclusive: 4.47 µM [inhibitor, full curve, poor fit]"}, {"smiles": "COc1ccc(N(CC(=O)N2CCN(c3ccccc3F)CC2)S(=O)(=O)c2c(C)n[nH]c2C)cc1", "Potency": "inconclusive: 112 µM [inhibitor, partial curve, poor fit]"}, {"smiles": "Cc1ccc(-c2c(C#N)c(N)nc3c2CCCCC3)o1", "Potency": "inconclusive: 15.8 µM [inhibitor, full curve, poor fit]"}, {"smiles": "Cc1nnc2sc(-c3ccc(-c4ccc(Cl)c(C(F)(F)F)c4)o3)nn12", "Potency": "inconclusive: 31.6 µM [inhibitor, single point]"}, {"smiles": "Cc1ccccc1NC(=O)c1cc(-c2ccco2)nc2ccccc12", "Potency": "inconclusive: 50.1 µM [inhibitor, partial curve, poor fit]"}, {"smiles": "COc1ccc2cnn(CC(=O)Nc3cc(F)ccc3F)c(=O)c2c1OC", "activity change, negative = inhibition": "inactive: -1.44%"}, {"smiles": "CCOc1ccc(NC(=O)COC(=O)CCC(=O)c2cccs2)cc1", "Potency": "inconclusive: 56.2 µM [inhibitor, partial curve, poor fit]"}, {"smiles": "CCc1ccc(C(=O)Oc2ccc(OC(=O)c3ccc(CC)cc3)c(-c3ccccc3)c2)cc1", "activity change, negative = inhibition": "inactive: 6.13%"}, {"smiles": "Cn1c(=O)n(C)c2cc(N3CCCCC3)c(NC(=O)c3ccc(C(C)(C)C)cc3)cc21", "activity change, negative = inhibition": "inconclusive: -36% [inhibitor]"}, {"smiles": "O=C(NC(=S)Nc1ccc(CN2CCCCC2)cc1)c1ccco1", "Potency": "inconclusive: 20 µM [inhibitor, partial curve, poor fit]"}, {"smiles": "CC(C)C[C@H]1CN([C@@H](CC(C)C)CN2CCCC2CN2C(=S)NC[C@@H]2Cc2ccc(O)cc2)C(=S)N1CC1CCCCCC1", "note": "(stereo partly specified)", "Potency": "inconclusive: 44.7 µM [inhibitor, partial curve, poor fit]"}, {"smiles": "COc1ccc(N(CC(=O)NCCSC2CCCCC2)S(=O)(=O)c2ccc(C)cc2)cc1", "Potency": "inconclusive: 50.1 µM [inhibitor, partial curve, poor fit]"}, {"smiles": "Cc1nnc(SCC(=O)c2ccc(S(=O)(=O)N3CCOCC3)cc2)n1-c1ccccc1", "Potency": "inconclusive: 1.58 µM [inhibitor, full curve, poor fit]"}, {"smiles": "COc1ccc(-n2cccc2/C=C2\\C(=N)N3N=C(c4ccco4)SC3=NC2=O)cc1", "activity change, negative = inhibition": "inactive: -29.6%"}, {"smiles": "O=C(CC1CCCC1)NCCc1cccnc1", "Potency": "inconclusive: 2.24 µM [inhibitor, full curve]"}]}]}
